{"source": "PubChem BioAssay AID590", "about": "(National Center for Advancing Translational Sciences (NCATS), 2007)", "note": "The campaign covered roughly 59,000 compounds. About 6,500 (11%) were called active. The shares of active, inactive and inconclusive entries below differ from those in the screen. No stated cut-off is given here; in the data, active means max dye-equivalent concentration above about 10 nM; inconclusive means mostly about 1.1 nM to 9.6 nM; inactive means weaker than that.", "data": [{"assay": "qHTS Assay for Spectroscopic Profiling in A350 Spectral Region", "conditions": "Compound autofluorescence, 340/450 nm, Alexa 350 dye-equivalents; hits give high values", "values": [{"smiles": "O=C(Cn1nc(C(F)(F)F)c2c1CCCC2)NCCN1CCOCC1", "max dye-equivalent concentration": "inconclusive: 2 nM"}, {"smiles": "O=C(NC1CCCCC1)C(c1ccco1)N(Cc1ccco1)C(=O)c1ccco1", "note": "(stereo not given)", "max dye-equivalent concentration": "inactive"}, {"smiles": "O=C(CSc1nnnn1C1CCCCC1)Nc1cccc(NC(=O)c2ccco2)c1", "max dye-equivalent concentration": "inconclusive: 1.5 nM"}, {"smiles": "COc1ccc(OC)c(NC(=O)c2nnn(Cc3ccccc3C)c2N)c1", "max dye-equivalent concentration": "inactive"}, {"smiles": "CCOc1cc(N2CCOCC2)c(OCC)cc1NC(=O)c1nc2nccc(C)n2n1", "max dye-equivalent concentration": "inconclusive: 1.5 nM"}, {"smiles": "O=c1oc2ccccc2c(O)c1/C=N/c1ccccn1", "max dye-equivalent concentration": "active: 30 nM"}, {"smiles": "O=C1N(CCCN2C(=O)C3(OCCO3)c3ccccc32)c2ccccc2C12OCCO2", "max dye-equivalent concentration": "inconclusive: 1.3 nM"}, {"smiles": "COc1cccc(NC(=O)c2ccccc2SC)c1", "max dye-equivalent concentration": "inactive"}, {"smiles": "CCCn1c(NCc2ccco2)nc2ccccc21", "max dye-equivalent concentration": "inconclusive: 1.1 nM"}, {"smiles": "COc1ccc(-c2cc(C(F)(F)F)nc(SCC(N)=O)n2)cc1", "max dye-equivalent concentration": "active: 68 nM"}, {"smiles": "Cc1cc(NC(=O)Cn2cc(C(F)(F)F)cc(Cl)c2=O)no1", "max dye-equivalent concentration": "inactive"}, {"smiles": "COc1ccc(F)cc1S(=O)(=O)Nc1ccc2c(c1)OCO2", "max dye-equivalent concentration": "inconclusive: 1.9 nM"}, {"smiles": "COc1ccccc1C(=O)Nc1cc(Cl)ccc1O", "max dye-equivalent concentration": "inconclusive: 1.7 nM"}, {"smiles": "OC1CCN(c2ncnc3c2nnn3Cc2c(F)cccc2Cl)CC1", "max dye-equivalent concentration": "inconclusive: 1.2 nM"}, {"smiles": "CCOC(=O)C(C)c1n[nH]c(=O)c2ccccc12", "note": "(stereo not given)", "max dye-equivalent concentration": "inactive"}, {"smiles": "COc1cc2c(cc1NC(=O)COC(=O)C1CC(=O)N(Cc3ccco3)C1)oc1ccccc12", "note": "(stereo not given)", "max dye-equivalent concentration": "inconclusive: 9 nM"}, {"smiles": "c1nc(NCCN2CCOCC2)c2cc(-c3ccoc3)ccc2n1", "max dye-equivalent concentration": "inconclusive: 2.4 nM"}, {"smiles": "COC(=O)c1cc(Br)c(=O)n(Cc2ccc(C(=O)O)cc2)c1", "max dye-equivalent concentration": "inconclusive: 1.1 nM"}, {"smiles": "Cc1cccn2cc(-c3ccccc3)nc12", "max dye-equivalent concentration": "inconclusive: 1.2 nM"}, {"smiles": "Cc1ccc(-c2nc(-c3cccnc3)no2)cc1", "max dye-equivalent concentration": "inactive"}, {"smiles": "CN/C=C1\\C(=O)C(C)(C)Oc2ccc3ccc(=O)oc3c21", "max dye-equivalent concentration": "inactive"}, {"smiles": "CCC(c1nnnn1Cc1ccco1)N(CCc1ccccc1)Cc1cc2cccc(C)c2[nH]c1=O", "note": "(stereo not given)", "max dye-equivalent concentration": "inconclusive: 1.7 nM"}, {"smiles": "Cn1c(=O)c(-c2ccccc2)nc2cnc(N3CCOCC3)nc21", "max dye-equivalent concentration": "inconclusive: 6.2 nM"}, {"smiles": "O=C(Nc1ccccc1)N1CC=C(c2ccccc2)CC1", "max dye-equivalent concentration": "inconclusive: 2.8 nM"}, {"smiles": "O=C(c1ccc(S(=O)(=O)N2CCC(c3nc4ccccc4s3)CC2)cc1)N1CCOCC1", "max dye-equivalent concentration": "inactive"}, {"smiles": "COc1ccccc1NC(=O)C1=C(C)NC(SCC(=O)c2ccccc2)=C(C#N)C1c1ccco1", "note": "(stereo not given)", "max dye-equivalent concentration": "inconclusive: 2.8 nM"}, {"smiles": "CCCCC(=O)NC(Nc1cc(C)ccn1)(C(=O)OCC)C(F)(F)F", "note": "(stereo not given)", "max dye-equivalent concentration": "inconclusive: 1.2 nM"}, {"smiles": "Cc1cc(=O)n2[nH]c(-c3ccccc3Cl)cc2n1", "max dye-equivalent concentration": "inconclusive: 3.2 nM"}, {"smiles": "Cc1ccc(S(=O)(=O)NCCCCCC(=O)NC(C)(C)CO)cc1", "max dye-equivalent concentration": "inconclusive: 8.1 nM"}, {"smiles": "Cc1ccc2nc3c(cc2c1)CN(Cc1ccco1)C(=NCC1CCCO1)S3", "note": "(stereo not given)", "max dye-equivalent concentration": "inconclusive: 1.5 nM"}, {"smiles": "COc1ccc2c3c([nH]c2c1)[C@H]1C[C@@H]2[C@@H](C[C@@H](O)[C@H](OC)[C@H]2C(=O)O)CN1CC3", "max dye-equivalent concentration": "active: 18 nM"}, {"smiles": "O=C(Nc1ccccc1)N1CCCC(c2nc(-c3cccs3)no2)C1", "note": "(stereo not given)", "max dye-equivalent concentration": "inconclusive: 1.6 nM"}, {"smiles": "O=C(NCc1ccco1)c1cc2nc(C3CC3)cc(C(F)(F)F)n2n1", "max dye-equivalent concentration": "inconclusive: 2.5 nM"}, {"smiles": "CCCCn1c(CN2CCN(C)CC2)nc2ccccc21", "max dye-equivalent concentration": "inconclusive: 7.6 nM"}, {"smiles": "O=C(c1cccs1)N(CCO)Cc1cc2cc3c(cc2[nH]c1=O)OCCO3", "max dye-equivalent concentration": "active: 150 nM"}, {"smiles": "COc1ccc(NC(=O)CSc2nc(C)cc(C(F)(F)F)n2)cc1", "max dye-equivalent concentration": "inconclusive: 2 nM"}, {"smiles": "O=C(COC(=O)c1cc(-c2ccco2)nc2ccccc12)NCc1ccc2c(c1)OCO2", "max dye-equivalent concentration": "active: 140 nM"}, {"smiles": "O=C(COC(=O)CCOc1ccccc1)Nc1ccc(Cl)cn1", "max dye-equivalent concentration": "inconclusive: 5.6 nM"}, {"smiles": "O=C(Cn1[nH]c(=O)c2ccccc2c1=O)Nc1cccc(-c2nnc3n2CCCCC3)c1", "max dye-equivalent concentration": "inconclusive: 1.4 nM"}, {"smiles": "O=C(c1cnn2c(C(F)F)cc(-c3ccccc3)nc12)N1CCSCC1", "max dye-equivalent concentration": "active: 16 nM"}, {"smiles": "CS(=O)(=O)N1CCC2(CCCN(Cc3ccccc3)C2)CC1", "max dye-equivalent concentration": "inconclusive: 2.9 nM"}, {"smiles": "O=c1c2[nH]c3ccc(Cl)cc3c2ncn1CCN1CCCCC1", "max dye-equivalent concentration": "inconclusive: 1.7 nM"}, {"smiles": "O=C(c1ccncc1)N1CCC[C@@]2(CCN(c3ccccc3)C2)C1", "max dye-equivalent concentration": "inactive"}, {"smiles": "OC(CN1CCN(c2cccc(C(F)(F)F)c2)CC1)c1c[nH]c2ccccc12", "note": "(stereo not given)", "max dye-equivalent concentration": "inconclusive: 1.5 nM"}, {"smiles": "CCOC(=O)C1CCN(CC(=O)Nc2c(C(=O)OC)[nH]c3ccc(Cl)cc23)CC1", "max dye-equivalent concentration": "inconclusive: 1.2 nM"}, {"smiles": "O=c1[nH]cnc2sc3c(c12)CCCC3", "max dye-equivalent concentration": "inconclusive: 3.8 nM"}, {"smiles": "CCOC(=O)c1[nH]c2ccc(OC)cc2c1NC(C)=O", "max dye-equivalent concentration": "active: 57 nM"}, {"smiles": "CCCc1cc(C(=O)Cc2ccc(F)cc2)c(O)cc1O", "max dye-equivalent concentration": "inconclusive: 3.3 nM"}, {"smiles": "O=C(Nc1ccccc1C(F)(F)F)c1cc(S(=O)(=O)N2CCC3(CC2)OCCO3)ccc1F", "max dye-equivalent concentration": "inconclusive: 4.1 nM"}, {"smiles": "Cn1c(=O)n(CCN2CCOCC2)c(=O)c2c1nc1n2CCCN1c1ccccc1", "max dye-equivalent concentration": "inconclusive: 3.9 nM"}, {"smiles": "CCOC(=O)CSC1=C(C#N)C(c2ccc(C)cc2)C(C(=O)OC)C(=O)N1", "note": "(stereo not given)", "max dye-equivalent concentration": "inactive"}, {"smiles": "O=c1oc2c(O)c(O)cc3c(=O)oc4c(O)c(O)cc1c4c23", "max dye-equivalent concentration": "inactive"}, {"smiles": "NS(=O)(=O)c1ccc(CCNC(=O)c2cncc(Br)c2)cc1", "max dye-equivalent concentration": "inconclusive: 1.9 nM"}, {"smiles": "c1ccc(-c2cnc(-c3ccc(-c4ncc(-c5ccccc5)o4)cc3)o2)cc1", "max dye-equivalent concentration": "active: 48 nM"}, {"smiles": "O=C(CSc1ncn(-c2ccccc2)n1)Nc1ccc2c(c1)OCCO2", "max dye-equivalent concentration": "inconclusive: 1.6 nM"}, {"smiles": "CC(C)c1cc(NCCN2CCOCC2)n2c(nc3ccccc32)c1C#N", "max dye-equivalent concentration": "active: 61 nM"}, {"smiles": "Cc1cc(/C=N/n2cnnc2)c(C)n1-c1ccc2c(c1)OCO2", "max dye-equivalent concentration": "active: 19 nM"}, {"smiles": "c1cncc(-c2nnc3sc(C4CCCCC4)nn23)c1", "max dye-equivalent concentration": "inconclusive: 2.8 nM"}, {"smiles": "CN1CC[n+]2cnc3ccccc3c21", "max dye-equivalent concentration": "inconclusive: 1.6 nM"}, {"smiles": "CC(=O)c1cc(C#N)c(SCC(=O)C(C)(C)C)nc1C", "max dye-equivalent concentration": "inactive"}, {"smiles": "COc1ccc(CNC(=O)c2c(O)c3ccccc3n(C)c2=O)cc1OC", "max dye-equivalent concentration": "inconclusive: 7.1 nM"}, {"smiles": "CSc1nc2sc3c(c2c2nncn12)CCC3", "max dye-equivalent concentration": "inconclusive: 7.6 nM"}, {"smiles": "COc1ccc2nccc(C(=O)O)c2c1", "max dye-equivalent concentration": "inconclusive: 5.2 nM"}, {"smiles": "CCOC(=O)CSc1ncnc2c1cnn2-c1ccc(C)cc1", "max dye-equivalent concentration": "inconclusive: 2.4 nM"}, {"smiles": "Cc1ccnc(N(C(=O)c2cccs2)C(=O)c2cccs2)c1", "max dye-equivalent concentration": "active: 15 nM"}, {"smiles": "COc1ccc2[nH]cc(CCNc3ncncc3-c3cccc(C#N)c3)c2c1", "max dye-equivalent concentration": "inactive"}, {"smiles": "CCCCn1c(=O)n(CC(O)c2ccccc2)c(=O)c2c1ncn2C1CCCC1", "note": "(stereo not given)", "max dye-equivalent concentration": "inconclusive: 1.3 nM"}, {"smiles": "COC(=O)c1nnc(-c2ccccc2)c(-c2ccccc2)n1", "max dye-equivalent concentration": "inconclusive: 2.3 nM"}, {"smiles": "COC(=O)c1c(NC(=O)CN2CCN(C(=O)c3ccco3)CC2)c2cc(C)ccc2n1C", "max dye-equivalent concentration": "inconclusive: 8.9 nM"}, {"smiles": "Cc1ccc(S(=O)(=O)NC(CC(=O)NCC2CCCO2)c2ccco2)cc1", "note": "(stereo not given)", "max dye-equivalent concentration": "inactive"}, {"smiles": "CC(=O)N1CCc2cc(S(=O)(=O)NCCC(=O)Nc3cccc(C)c3)ccc21", "max dye-equivalent concentration": "inconclusive: 2.4 nM"}, {"smiles": "COC(=O)c1ccc2c(=O)n(Cc3ccco3)c(SCC(=O)Nc3ccc(C)c(Cl)c3)nc2c1", "max dye-equivalent concentration": "inconclusive: 4.8 nM"}, {"smiles": "N#CC(CC(=O)O)=C(c1ccccc1)c1ccccc1", "max dye-equivalent concentration": "inactive"}, {"smiles": "Cc1ccccc1Cn1cc(NC(=O)c2cc3nc(-c4ccco4)cc(C(F)(F)F)n3n2)cn1", "max dye-equivalent concentration": "inconclusive: 2.3 nM"}, {"smiles": "CN(Cc1cccs1)S(=O)(=O)c1cccs1", "max dye-equivalent concentration": "inconclusive: 2 nM"}, {"smiles": "Cc1cc(NC(=O)c2cnn3c(C(F)(F)F)cc(-c4ccccc4)nc23)no1", "max dye-equivalent concentration": "inconclusive: 3.1 nM"}, {"smiles": "O=c1[nH]c(CN2CCc3ccccc3C2)nc2ccccc12", "max dye-equivalent concentration": "active: 49 nM"}, {"smiles": "COc1cc(C2C3=C(Nc4ncnn42)c2ccccc2CC3)cc(OC)c1OC", "note": "(stereo not given)", "max dye-equivalent concentration": "inconclusive: 2.2 nM"}, {"smiles": "COc1ccc(OC)c(NC(=O)Cn2cc(C(=O)c3ccco3)c3ccccc32)c1", "max dye-equivalent concentration": "active: 15 nM"}, {"smiles": "COCCCn1c2nc3ccccc3nc2c2c(=O)n(Cc3ccccc3Cl)cnc21", "max dye-equivalent concentration": "active: 250 nM"}, {"smiles": "O=C(NC12CC3CC(CC(C3)C1)C2)N1CCCC(CO)C1", "note": "(stereo not given)", "max dye-equivalent concentration": "inactive"}, {"smiles": "O=C(O)C1CCCCC1C(=O)N1CC=C(c2ccccc2)CC1", "note": "(stereo not given)", "max dye-equivalent concentration": "inconclusive: 3.9 nM"}, {"smiles": "N#Cc1ccccc1-c1cncnc1NCc1cccnc1", "max dye-equivalent concentration": "inactive"}, {"smiles": "Cn1c(SCC(=O)NCc2ccc3c(c2)OCO3)nnc1-c1cccs1", "max dye-equivalent concentration": "inconclusive: 1.1 nM"}, {"smiles": "Cc1nc(-c2cccc(S(=O)(=O)N3CC(C)OC(C)C3)c2)cs1", "note": "(stereo not given)", "max dye-equivalent concentration": "inactive"}, {"smiles": "CCc1cccc(NS(=O)(=O)c2c(C)n[nH]c2C)c1", "max dye-equivalent concentration": "inconclusive: 1.8 nM"}, {"smiles": "O=S(=O)(c1ccccc1)N1CCC2(CCN(C(c3ccccc3)c3ccccc3)CC2)CC1", "max dye-equivalent concentration": "inactive"}, {"smiles": "Cc1ccc(Nc2nnc(-c3ccc4c(c3)OCO4)o2)c(C)c1", "max dye-equivalent concentration": "inconclusive: 5.9 nM"}, {"smiles": "COCCCNC(=O)Nc1ccc(F)cc1F", "max dye-equivalent concentration": "inactive"}, {"smiles": "Cc1ccc(C)c(NS(=O)(=O)c2ccc(NC(=O)c3ccco3)cc2)c1", "max dye-equivalent concentration": "inconclusive: 2.6 nM"}]}]}
